Data on three molecules can be found in article PMC4721963.

Protein sequences, listed by entry. Tags and fused reporters are not part of them.
UniProt Q16531: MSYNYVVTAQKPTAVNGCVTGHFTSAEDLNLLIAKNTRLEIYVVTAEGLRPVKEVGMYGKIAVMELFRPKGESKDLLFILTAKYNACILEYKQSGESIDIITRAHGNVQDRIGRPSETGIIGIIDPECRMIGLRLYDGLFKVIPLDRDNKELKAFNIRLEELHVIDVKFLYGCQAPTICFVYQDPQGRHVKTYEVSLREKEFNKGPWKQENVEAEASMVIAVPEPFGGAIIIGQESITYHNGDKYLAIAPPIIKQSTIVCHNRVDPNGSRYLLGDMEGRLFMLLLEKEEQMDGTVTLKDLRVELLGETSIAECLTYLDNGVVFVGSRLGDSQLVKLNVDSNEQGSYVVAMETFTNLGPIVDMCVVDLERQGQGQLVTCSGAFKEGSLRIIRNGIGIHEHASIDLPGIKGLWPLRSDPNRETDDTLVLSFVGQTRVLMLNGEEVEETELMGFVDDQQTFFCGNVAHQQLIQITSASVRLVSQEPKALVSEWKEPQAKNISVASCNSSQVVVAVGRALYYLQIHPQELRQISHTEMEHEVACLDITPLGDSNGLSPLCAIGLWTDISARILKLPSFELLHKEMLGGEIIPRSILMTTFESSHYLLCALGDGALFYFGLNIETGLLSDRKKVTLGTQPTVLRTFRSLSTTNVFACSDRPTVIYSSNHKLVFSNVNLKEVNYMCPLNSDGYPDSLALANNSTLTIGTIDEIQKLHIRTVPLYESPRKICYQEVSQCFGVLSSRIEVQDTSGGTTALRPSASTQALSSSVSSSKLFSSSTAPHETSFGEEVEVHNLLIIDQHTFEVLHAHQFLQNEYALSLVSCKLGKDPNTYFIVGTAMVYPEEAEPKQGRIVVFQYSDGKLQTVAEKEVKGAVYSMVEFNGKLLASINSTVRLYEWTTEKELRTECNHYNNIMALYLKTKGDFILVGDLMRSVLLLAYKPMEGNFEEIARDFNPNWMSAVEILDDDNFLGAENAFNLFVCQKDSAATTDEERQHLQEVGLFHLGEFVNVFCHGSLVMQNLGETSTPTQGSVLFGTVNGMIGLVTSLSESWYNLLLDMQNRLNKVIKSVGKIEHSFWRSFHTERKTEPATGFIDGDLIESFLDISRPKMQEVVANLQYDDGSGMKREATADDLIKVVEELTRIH
UniProt Q13620: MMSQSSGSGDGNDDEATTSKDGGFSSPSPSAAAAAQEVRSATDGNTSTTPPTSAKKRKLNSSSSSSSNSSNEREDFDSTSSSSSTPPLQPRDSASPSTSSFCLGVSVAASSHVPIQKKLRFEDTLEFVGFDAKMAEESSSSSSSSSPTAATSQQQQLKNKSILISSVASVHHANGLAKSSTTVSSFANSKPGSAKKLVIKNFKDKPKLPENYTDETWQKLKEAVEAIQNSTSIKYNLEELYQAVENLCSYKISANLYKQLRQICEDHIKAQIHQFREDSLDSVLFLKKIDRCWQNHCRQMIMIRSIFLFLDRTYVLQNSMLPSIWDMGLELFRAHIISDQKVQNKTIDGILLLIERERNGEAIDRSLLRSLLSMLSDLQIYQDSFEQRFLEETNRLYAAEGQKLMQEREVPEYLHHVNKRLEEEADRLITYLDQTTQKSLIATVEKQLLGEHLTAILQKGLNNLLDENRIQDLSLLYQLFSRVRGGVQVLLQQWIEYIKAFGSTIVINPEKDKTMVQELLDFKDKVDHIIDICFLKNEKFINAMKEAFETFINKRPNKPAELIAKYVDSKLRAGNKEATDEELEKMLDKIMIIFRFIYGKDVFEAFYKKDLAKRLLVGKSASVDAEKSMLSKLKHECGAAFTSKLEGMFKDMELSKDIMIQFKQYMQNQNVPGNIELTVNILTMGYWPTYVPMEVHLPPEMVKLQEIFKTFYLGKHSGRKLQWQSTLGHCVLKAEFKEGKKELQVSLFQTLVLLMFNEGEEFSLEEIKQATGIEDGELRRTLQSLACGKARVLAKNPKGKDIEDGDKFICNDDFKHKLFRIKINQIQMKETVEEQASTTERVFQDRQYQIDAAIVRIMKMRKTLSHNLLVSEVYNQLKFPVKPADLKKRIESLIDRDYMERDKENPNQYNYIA
UniProt Q8N7N5: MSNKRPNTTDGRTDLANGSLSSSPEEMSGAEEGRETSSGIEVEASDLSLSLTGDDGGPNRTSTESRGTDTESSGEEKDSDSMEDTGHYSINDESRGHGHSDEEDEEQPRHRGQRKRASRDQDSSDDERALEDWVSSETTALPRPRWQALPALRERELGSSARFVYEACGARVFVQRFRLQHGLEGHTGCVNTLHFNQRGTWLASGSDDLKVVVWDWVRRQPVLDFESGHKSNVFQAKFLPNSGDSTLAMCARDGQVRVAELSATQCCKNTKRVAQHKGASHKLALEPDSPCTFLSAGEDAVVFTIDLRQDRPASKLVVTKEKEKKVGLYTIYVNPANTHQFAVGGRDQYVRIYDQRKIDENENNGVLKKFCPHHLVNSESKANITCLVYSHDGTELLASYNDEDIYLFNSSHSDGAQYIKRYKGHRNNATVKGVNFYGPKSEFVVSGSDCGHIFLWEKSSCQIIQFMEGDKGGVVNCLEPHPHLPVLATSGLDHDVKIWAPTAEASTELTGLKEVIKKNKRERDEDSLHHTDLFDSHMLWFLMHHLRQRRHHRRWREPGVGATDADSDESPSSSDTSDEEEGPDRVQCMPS

Assay [1] concerns the target DDB1 in tandem with HA/Flag tags (pCDNA-HA-Flag-DDB1), transiently expressed in 293T (human) (UniProt Q16531). Briefly: affinity purification with mass spectrometry; HA-Flag-DDB1 transfected in 293T, 48 h, 10 uM MG132 for 4 h; lysis in 100 mM Tris-HCl pH 7.5, 150 mM NaCl, 1% Triton-X100, 1 mM EDTA, 2 mM MgCl2; tagged protein purified, trypsin, LC-MS/MS.
For assay [2], the target named is DDB1 in tandem with StrepII/Flag tags (pBS31-N-SF-DDB1), doxycycline-inducible in ESC (human) (UniProt Q16531). The experiment in a line: affinity purification with mass spectrometry; StrepII/Flag-DDB1 in ESC induced with 2 uM doxycycline for 3 days, 10 uM MG132 for 2 h; lysis in 100 mM Tris-HCl pH 7.5, 150 mM NaCl, 1% Triton-X100, 1 mM EDTA, 2 mM MgCl2; bound to StrepTactin beads, eluted, trypsin, LC-MS/MS.

Assay [3] deals with DDB1 in tandem with Strep/Flag tags (pMIG-N-SF-DDB1), stably transduced in HL60 (human) (UniProt Q16531). Briefly: affinity purification with mass spectrometry; Strep/Flag-DDB1 stably transduced in HL-60; lysis in 100 mM Tris-HCl pH 7.5, 150 mM NaCl, 1% Triton-X100, 1 mM EDTA, 2 mM MgCl2; bound to StrepTactin beads, eluted, trypsin, LC-MS/MS.

These are yes or no findings as the source states them, for the method shown. In cells and extracts the contact can be indirect. These calls come from enrichment with a bait or labelling near it, and not all partners need be listed.

On to “CUL4B (endogenous in 293T) (from UniProt Q13620 1-913)”, for which the binding entry in assay [1] is given as “binds”.
Take “DCAF8 (endogenous in ESC) (from UniProt Q8N7N5 1-591)”: the binding result in assay [2] is “binds”.

B1: DCAF7 (endogenous in HL60) (protein, UniProt P61962 1-342)
chain: MSLHGKRKEIYKYEAPWTVYAMNWSVRPDKRFRLALGSFVEEYNNKVQLVGLDEESSEFICRNTFDHPYPTTKLMWIPDTKGVYPDLLATSGDYLRVWRVGETETRLECLLNNNKNSDFCAPLTSFDWNEVDPYLLGTSSIDTTCTIWGLETGQVLGRVNLVSGHVKTQLIAHDKEVYDIAFSRAGGGRDMFASVGADGSVRMFDLRHLEHSTIIYEDPQHHPLLRLCWNKQDPNYLATMAMDGMEVVILDVRVPCTPVARLNNHRACVNGIAWAPHSSCHICTAADDHQALIWDIQQMPRAIEDPILAYTAEGEINNVQWASTQPDWIAICYNNCLEILRV
In the case of B1, the binding entry in assay [3] is “binds”.
